Experimental data taken from the supplement of paper PMC8728848.
Some of the results follow.

Key:
Experiment in all cases: glycan array binding signal (z-score within array); higher = stronger binding
Conditions in all cases: glycan notation: IUPAC condensed, linker removed
[1] = molecular target: Neu5Ac(a2-3)Gal6S(b1-4)GlcNAc
How it was run: (§1)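 Glycan array binding is given as a within-array Z-score, which can be read as non-binding when negative. The arrays, 3228 of them, came from the Consortium for Functional Glycomics database and were retained only where the protein sequence was available. Z-scores were averaged across arrays of the same protein sequence at different concentrations or buffers and across linkers.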

[2] = molecular target: Neu5Ac(a2-3)Gal6S(b1-4)[Fuc(a1-3)]GlcNAc
How it was run: as §1

Neu5Ac(a2-3)GalNAc = molecular target: Neu5Ac(a2-3)GalNAc
How it was run: as §1

[3] = molecular target: Neu5Ac(a2-3)GalNAc(b1-4)GlcNAc
How it was run: as §1

[4] = molecular target: Neu5Ac(a2-3)[GalNAc(b1-4)]Gal(b1-4)Glc
How it was run: as §1

[5] = molecular target: Neu5Ac(a2-3)[GalNAc(b1-4)]Gal(b1-4)GlcNAc
How it was run: as §1

[6] = molecular target: Neu5Ac(a2-3)[Neu5Ac(a2-6)]GalNAc
How it was run: as §1

[7] = molecular target: Neu5Ac(a2-6)Gal(b1-4)GlcNAc
How it was run: as §1

[8] = molecular target: Neu5Ac(a2-6)Gal(b1-4)GlcNAc(b1-2)Man(a1-3)[Neu5Ac(a2-6)Gal(b1-4)GlcNAc(b1-2)Man(a1-6)]Man(b1-4)GlcNAc(b1-4)GlcNAc
How it was run: as §1

[9] = molecular target: Neu5Ac(a2-6)Gal(b1-4)GlcNAc(b1-3)Gal(b1-4)GlcNAc
How it was run: as §1

[10] = molecular target: Neu5Ac(a2-6)Gal(b1-4)GlcNAc(b1-3)Gal(b1-4)[Fuc(a1-3)]GlcNAc(b1-3)Gal(b1-4)[Fuc(a1-3)]GlcNAc
How it was run: as §1

[11] = molecular target: Neu5Ac(a2-6)Gal(b1-4)GlcNAc6S
How it was run: as §1

Neu5Ac(a2-6)GalNAc = molecular target: Neu5Ac(a2-6)GalNAc
How it was run: as §1

[12] = molecular target: Neu5Ac(a2-6)GalNAc(b1-4)GlcNAc
How it was run: as §1

Neu5Ac(a2-8)Neu5Ac = molecular target: Neu5Ac(a2-8)Neu5Ac
How it was run: as §1

[13] = molecular target: Neu5Ac(a2-8)Neu5Ac(a2-3)Gal(b1-4)Glc
How it was run: as §1

[14] = molecular target: Neu5Ac(a2-8)Neu5Ac(a2-3)[GalNAc(b1-4)]Gal(b1-4)Glc
How it was run: as §1

[15] = molecular target: Neu5Ac(a2-8)Neu5Ac(a2-8)Neu5Ac
How it was run: as §1

[16] = molecular target: Neu5Ac(a2-8)Neu5Ac(a2-8)Neu5Ac(a2-3)Gal(b1-4)Glc
How it was run: as §1

[17] = molecular target: Neu5Ac(a2-8)Neu5Ac(a2-8)Neu5Ac(a2-3)[GalNAc(b1-4)]Gal(b1-4)Glc
How it was run: as §1

[18] = molecular target: Neu5Ac(a2-8)Neu5Ac(a2-8)Neu5Ac(a2-8)Neu5Ac(a2-3)[GalNAc(b1-4)]Gal(b1-4)Glc
How it was run: as §1

[19] = molecular target: Neu5Ac9Ac(a2-6)Gal(b1-4)GlcNAc
How it was run: as §1

[20] = molecular target: Neu5Gc(a2-3)Gal(b1-3)GlcNAc
How it was run: as §1

[21] = molecular target: Neu5Gc(a2-3)Gal(b1-3)[Fuc(a1-4)]GlcNAc
How it was run: as §1

Neu5Gc(a2-3)Gal(b1-4)Glc = molecular target: Neu5Gc(a2-3)Gal(b1-4)Glc
How it was run: as §1

[22] = molecular target: Neu5Gc(a2-3)Gal(b1-4)GlcNAc
How it was run: as §1

[23] = molecular target: Neu5Gc(a2-3)Gal(b1-4)[Fuc(a1-4)]GlcNAc
How it was run: as §1

[24] = molecular target: Neu5Gc(a2-6)Gal(b1-4)GlcNAc
How it was run: as §1

Neu5Gc(a2-6)GalNAc = molecular target: Neu5Gc(a2-6)GalNAc
How it was run: as §1

B1: KCR (Mus musculus), P70194 (protein)
chain: MKEAELNRDMARYCTDNQCVSLQPQGLGPKSAALMAPRTLRHVQVILALMVVTVIFSLLALFVVASQPWRPEWNKEPPSLLLRGSNNSGHDNHSQFVRETEMQVAIQRLRDYEENSSSCHKEVQILKYQMDNVSSLVQLLGSHLEDVNADILQTKDVLKESGALALETQALRSSLEVASADIHSLRGDLEKANAMTSQTRGLLKSSTENTSAELHVLGRGLEEAQSEIQALRGSLQSANDLSSQTQGFLQHSMDNISAQIQTVRDGMERAGEKMNSLKKELETLTAQTQKANGHLEQTDAQIQGLKAELKSTSSLNSRIEVVNGQMKDASRELQTLRRDLSDVSALKSNVQMLQSNLQRAKTEMQTLKADLQATKALTAKIQGEQNRLGALQEAVAAQKQEQKTQNQVLQLIAQNWKYFNGNFYYFSRDKKPWREAEKFCTSQGAHLASVTSQEEQAFLVQTTSSGDHWIGLTDQGTEGIWRWVDGTPFNNAQSKGFWGKNQPDNWRHRNGEREDCVHVRQQWNDMACGSSYPWVCKKSTGWSAARVG
- glycan array binding signal (z-score) [1]: -0.172
- glycan array binding signal (z-score) [2]: -0.428
- glycan array binding signal (z-score) (Neu5Ac(a2-3)GalNAc): -0.706
- glycan array binding signal (z-score) [3]: -0.414
- glycan array binding signal (z-score) [4]: 0.128
- glycan array binding signal (z-score) [5]: -0.33
- glycan array binding signal (z-score) [6]: -0.434
- glycan array binding signal (z-score) [7]: -0.39
- glycan array binding signal (z-score) [8]: 0.412
- glycan array binding signal (z-score) [9]: -0.191
- glycan array binding signal (z-score) [10]: 0.362
- glycan array binding signal (z-score) [11]: 1.02
- glycan array binding signal (z-score) (Neu5Ac(a2-6)GalNAc): -0.378
- glycan array binding signal (z-score) [12]: -0.369
- glycan array binding signal (z-score) (Neu5Ac(a2-8)Neu5Ac): -0.725
- glycan array binding signal (z-score) [13]: -0.032
- glycan array binding signal (z-score) [14]: 0.414
- glycan array binding signal (z-score) [15]: -0.671
- glycan array binding signal (z-score) [16]: -0.692
- glycan array binding signal (z-score) [17]: 0.254
- glycan array binding signal (z-score) [18]: 0.482
- glycan array binding signal (z-score) [19]: -0.053
- glycan array binding signal (z-score) [20]: -0.329
- glycan array binding signal (z-score) [21]: -0.68
- glycan array binding signal (z-score) (Neu5Gc(a2-3)Gal(b1-4)Glc): -0.204
- glycan array binding signal (z-score) [22]: -0.288
- glycan array binding signal (z-score) [23]: -0.371
- glycan array binding signal (z-score) [24]: -0.025
- glycan array binding signal (z-score) (Neu5Gc(a2-6)GalNAc): -0.414
